Record: PubChem BioAssay AID1159508 (Drosophila RNAi Screening Center, 2015)
Test: 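Viability reference data for a dsRNA library against RNA-binding protein genes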. System: Drosophila S2R+ cells. Reagent: long dsRNA against Drosophila genes. Duration: 5 days. Measurement: 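Total ATP per well measured by luciferase luminescence after 5 days, expressed as z-scores for each replicate and as their average across up to three replicates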. Scale: mean ATP z-score: higher = more total ATP luminescence. Hit rule: In these data the active calls have mean ATP z-score at about -2 or lower, or at about 2 or higher. Calls: active = strong ATP change (up or down); inactive = no strong ATP change.
Shown is one part, drawn at random, of 812 reagents tested. Over the whole deposit, 18 (2.2%) got an active call. 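Calls include both increased and decreased ATP; roughly one in four reagents has no third replicate value.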 A number with no mark means an inactive call. Names joined by + are all predicted targets of the reagent. Not all columns of the deposit are shown. No sequences are given here. Not given: the amount of reagent.

The opening 2 records, to show the layout:
{"predicted target": "Adar", "DRSC id": "DRSC17725", "mean ATP z-score": 0.337}
{"predicted target": "Adar", "DRSC id": "DRSC42388", "mean ATP z-score": 1.6}

Results, repeating the preview:
{"predicted target": "Adar", "DRSC id": "DRSC17725", "mean ATP z-score": 0.337}
{"predicted target": "Adar", "DRSC id": "DRSC42388", "mean ATP z-score": 1.6}
{"predicted target": "CG9346", "DRSC id": "DRSC04542", "mean ATP z-score": 1.04}
{"predicted target": "CG9346", "DRSC id": "DRSC41515", "mean ATP z-score": -0.307}
{"predicted target": "peng", "DRSC id": "DRSC29638", "mean ATP z-score": 0.962}
{"predicted target": "peng", "DRSC id": "DRSC41042", "mean ATP z-score": 0.288}
{"predicted target": "msl-3", "DRSC id": "DRSC11371", "mean ATP z-score": 1.24}
{"predicted target": "msl-3", "DRSC id": "DRSC35871", "mean ATP z-score": 0.29}
{"predicted target": "bol", "DRSC id": "DRSC11329", "mean ATP z-score": 0.823}
{"predicted target": "bol", "DRSC id": "DRSC26869", "mean ATP z-score": -0.159}
{"predicted target": "bsf", "DRSC id": "DRSC02035", "mean ATP z-score": -0.385}
{"predicted target": "bsf", "DRSC id": "DRSC42668", "mean ATP z-score": -0.981}
{"predicted target": "Pus10", "DRSC id": "DRSC00629", "mean ATP z-score": -0.348}
{"predicted target": "Pus10", "DRSC id": "DRSC42657", "mean ATP z-score": 0.156}
{"predicted target": "CHKov1", "DRSC id": "DRSC14258", "mean ATP z-score": -0.491}
{"predicted target": "CHKov1", "DRSC id": "DRSC33590", "mean ATP z-score": 0.421}
{"predicted target": "Hrb27C", "DRSC id": "DRSC28323", "mean ATP z-score": -1.25}
{"predicted target": "Hrb27C", "DRSC id": "DRSC32136", "mean ATP z-score": 0.339}
{"predicted target": "Prp5", "DRSC id": "DRSC27434", "mean ATP z-score": -0.9}
{"predicted target": "Prp5", "DRSC id": "DRSC35423", "mean ATP z-score": 1.48}
{"predicted target": "Mkp + CG34140", "DRSC id": "DRSC08585", "mean ATP z-score": 0.857}
{"predicted target": "Mkp + CG34140", "DRSC id": "DRSC26000", "mean ATP z-score": -0.545}
